Measurements reported in doi:10.1101/2022.02.14.480271.
No constants are given. Whether binding was seen depends on the method and setting. Binding seen in cells or lysates may run through a third protein. Some results given as binding are weak or reduced against the parent protein; the word gives no strength.

Amino acid sequences for entries named in this document (tags omitted).
UniProt Q14694: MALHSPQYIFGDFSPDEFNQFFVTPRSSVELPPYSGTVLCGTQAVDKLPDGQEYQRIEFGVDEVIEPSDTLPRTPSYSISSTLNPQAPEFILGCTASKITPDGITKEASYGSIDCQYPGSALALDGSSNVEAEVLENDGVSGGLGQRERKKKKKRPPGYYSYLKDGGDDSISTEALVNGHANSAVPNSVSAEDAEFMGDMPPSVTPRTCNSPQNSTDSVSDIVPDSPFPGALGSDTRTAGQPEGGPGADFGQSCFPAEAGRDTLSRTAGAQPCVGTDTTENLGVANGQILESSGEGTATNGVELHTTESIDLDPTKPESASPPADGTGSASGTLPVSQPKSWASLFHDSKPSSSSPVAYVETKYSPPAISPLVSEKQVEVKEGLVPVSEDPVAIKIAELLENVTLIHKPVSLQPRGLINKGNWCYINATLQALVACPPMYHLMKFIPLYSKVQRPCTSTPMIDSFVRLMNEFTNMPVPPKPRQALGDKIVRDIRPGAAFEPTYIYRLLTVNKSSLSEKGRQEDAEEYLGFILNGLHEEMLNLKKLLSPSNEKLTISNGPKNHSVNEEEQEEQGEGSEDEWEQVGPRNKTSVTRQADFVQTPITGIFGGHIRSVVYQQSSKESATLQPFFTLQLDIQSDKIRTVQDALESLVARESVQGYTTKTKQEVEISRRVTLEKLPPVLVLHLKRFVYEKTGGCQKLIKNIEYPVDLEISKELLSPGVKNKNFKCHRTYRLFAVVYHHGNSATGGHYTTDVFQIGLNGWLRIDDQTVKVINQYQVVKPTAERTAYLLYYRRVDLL
UniProt Q9Y4D1: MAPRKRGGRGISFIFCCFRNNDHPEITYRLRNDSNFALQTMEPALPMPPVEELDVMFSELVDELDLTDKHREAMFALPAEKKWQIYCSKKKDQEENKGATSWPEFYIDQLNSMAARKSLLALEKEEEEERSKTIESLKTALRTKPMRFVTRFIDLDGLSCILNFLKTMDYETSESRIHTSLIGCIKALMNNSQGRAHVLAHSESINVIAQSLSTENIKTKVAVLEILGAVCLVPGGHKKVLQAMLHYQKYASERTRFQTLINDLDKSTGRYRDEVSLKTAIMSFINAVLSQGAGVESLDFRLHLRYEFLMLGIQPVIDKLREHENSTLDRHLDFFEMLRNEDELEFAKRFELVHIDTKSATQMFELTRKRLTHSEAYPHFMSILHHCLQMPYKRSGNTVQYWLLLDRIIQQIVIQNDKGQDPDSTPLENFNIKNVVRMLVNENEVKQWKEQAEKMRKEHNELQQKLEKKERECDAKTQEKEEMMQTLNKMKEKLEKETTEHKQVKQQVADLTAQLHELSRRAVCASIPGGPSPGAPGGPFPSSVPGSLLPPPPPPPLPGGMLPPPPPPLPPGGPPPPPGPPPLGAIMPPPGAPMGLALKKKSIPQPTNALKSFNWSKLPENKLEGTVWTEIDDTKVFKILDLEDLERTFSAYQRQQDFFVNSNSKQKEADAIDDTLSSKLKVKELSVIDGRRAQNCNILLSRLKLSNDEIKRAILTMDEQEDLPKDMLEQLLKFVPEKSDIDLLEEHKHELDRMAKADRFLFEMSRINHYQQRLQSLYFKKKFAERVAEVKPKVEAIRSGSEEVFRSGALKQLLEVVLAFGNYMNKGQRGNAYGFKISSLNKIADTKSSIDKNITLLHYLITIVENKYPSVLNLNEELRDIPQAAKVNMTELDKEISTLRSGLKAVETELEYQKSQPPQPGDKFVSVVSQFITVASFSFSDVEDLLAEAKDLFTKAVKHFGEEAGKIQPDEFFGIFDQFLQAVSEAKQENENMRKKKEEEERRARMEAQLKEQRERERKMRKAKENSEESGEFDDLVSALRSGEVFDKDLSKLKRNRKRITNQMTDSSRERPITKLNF

Target: USP10 (endogenous in human corneal fibroblasts) (human (endogenous in HCFs)) (UniProt Q14694)
Test: proximity ligation

Daam1 (endogenous in human corneal fibroblasts) (from UniProt Q9Y4D1 1-1078)
binding: binds
